# Source: PubChem BioAssay AID2685 (National Center for Advancing Translational Sciences (NCATS), 2010)
# The list shows a part of the results. The main result of the screen is listed elsewhere. These columns were measured beside it and carry no call. The list favours compounds with an active or inconclusive main result. Words in brackets tell the shape of the fitted curve; partial curves, single points and poor fits give uncertain potencies.
# Experiment: qHTS Assay for Lipid Storage Modulators in Drosophila S3 Cells;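 as to cell number change: cells counted by Cell Tracker Red CMTPX staining in the red channel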
# Settings: BODIPY lipid droplet fluorescence, 18-24 h; for cell number change: measured here: cell count max response, cells fed with added oleic acid
# In short: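 Drosophila S3 cells loaded with oleic acid (400 uM, as added) and compounds at several concentrations; lipid droplets imaged by 488-nm laser-scanning cytometry, 500–530 nm intensity and object ratio to cell channel. Percent activity normalized to 20 uM Triacsin C.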
# [1] = measured here: lipid fluorescence (Fed channel) AC50, cells fed with added oleic acid
# [2] = measured here: cell number channel AC50, cells fed with added oleic acid
Compound,cell number change [%],AC50 [1],AC50 [2]
O=C(O)CN(CCO)CCN(CC(=O)O)CC(=O)O,-23.9,"13 µM [falling, single point]",–
N#C/C(=N\Nc1ccc(Cl)cc1)C(=O)c1ccccc1,-41.2,–,"32.6 µM [falling, single point]"
CN1C(=O)/C(=C\c2ccccc2F)Sc2ccc(C(=O)NC3CCN(Cc4ccccc4)CC3)cc21,-17.6,–,"0.103 µM [rising, full curve]"
Cc1ccc2c(c1)N(CC(=O)NC1CCCC1)C(=O)CO2,27.6,–,–
Cc1onc(-c2ccccc2)c1C(=O)N1CCN(c2ncccc2C(F)(F)F)CC1,3.79,–,–
c1ccc(OCCCCn2cnc3ccccc32)cc1,-39.3,–,"29.1 µM [falling, single point]"
COc1ccc(CC(=O)OCC(=O)N2CCN(S(=O)(=O)c3ccc(C)cc3C)CC2)cc1,-66.3,"3.26 µM [falling, partial curve]","29.1 µM [falling, single point]"
COc1ccc(-c2noc(CCCC(=O)N3CCOCC3)n2)cc1,23.1,–,–
COC(=O)c1cc(NC(=O)c2cccc(F)c2)cc(C(=O)OC)c1,49.7,–,"10.3 µM [rising, partial curve, poor fit]"
COc1ccc(C(=O)NC(Nc2ccc(C)cc2)C(Cl)(Cl)Cl)cc1 (configuration not stated),-30.2,"20.6 µM [falling, partial curve, poor fit]","18.4 µM [falling, single point]"
CCOc1ccc(C(=O)C[n+]2cccc3cc(C)ccc32)cc1,-18.1,"2.31 µM [falling, partial curve, poor fit]",–
Cc1ccc(N(Cc2ccccc2)C(=O)CN2C(=O)NC3(CCCC3)C2=O)cc1,5.6,–,–
Cc1nc2ccccc2n1S(=O)(=O)c1ccc(Br)cc1,17.1,"8.2 µM [rising, partial curve]",–
CCn1c(C)nc2cc(C(=O)NNC(=S)Nc3ccccc3)ccc21,-0.637,"0.00461 µM [rising, full curve, poor fit]",–
Cc1cccc(OCC(O)Cn2c(-n3nc(C)cc3C)nc3c2c(=O)[nH]c(=O)n3C)c1 (configuration not stated),-0.495,"1.16 µM [rising, full curve, poor fit]",–
O=S(=O)(c1ccc(Cl)cc1)N1CCSC1c1ccco1 (configuration not stated),-6.28,–,–
CCN(C(=O)COC(=O)c1cccnc1Nc1ccccc1F)C1CCS(=O)(=O)C1 (configuration not stated),23.3,"29.1 µM [rising, single point]",–
CN1C(=O)c2ccccc2N(C)C1c1ccc(F)cc1 (configuration not stated),21.4,"29.1 µM [rising, single point]",–
C[C@@H](O)[C@@H]1NC(=O)c2cc([N+](=O)[O-])cc(I)c2NCC[C@@H](C(N)=O)NC(=O)CNC1=O,30.1,–,"29.1 µM [rising, single point]"
COc1ccc(NC(=O)c2ccc3nc(C)sc3c2)cc1,-5.77,"29.1 µM [falling, single point]",–

# Three compounds out of the list, sorted by number of heavy atoms, low to high:
Compound,cell number change [%],AC50 [1],AC50 [2]
Cc1ccc2c(c1)N(CC(=O)NC1CCCC1)C(=O)CO2,27.6,–,–
COc1ccc(-c2noc(CCCC(=O)N3CCOCC3)n2)cc1,23.1,–,–
Cc1onc(-c2ccccc2)c1C(=O)N1CCN(c2ncccc2C(F)(F)F)CC1,3.79,–,–

# Additional entries

Compound,cell number change [%],AC50 [1],AC50 [2]
COc1ccc(NC(=O)c2cc3n(n2)C(C(F)(F)F)CC(c2ccc(OC)cc2)N3)cc1 (configuration not stated),–,"18.4 µM [rising, partial curve, poor fit]",–
Cc1cc(C)n(-c2nnc(C)n2/N=C/c2ccccc2OCc2ccccc2Cl)n1,36.3,"29.1 µM [rising, single point]","29.1 µM [rising, single point]"
CCc1ccc(C(CNC(=O)c2ccc3c(=O)n(-c4ccccc4F)c(=S)[nH]c3c2)N(C)C)cc1 (configuration not stated),9.28,"0.58 µM [falling, single point]",–
CC(C)CCC(CC(C)O)C(=O)NNC(=S)Nc1ccccc1 (configuration not stated),14.2,–,–
CCS(=O)(=O)N1CCCC(C(=O)NCCCN(C)Cc2ccccc2)C1 (configuration not stated),-165,"29.1 µM [falling, single point]","18.4 µM [falling, single point]"
Cc1nn(-c2ccccc2)c2nc(-c3ccco3)cc(C(=O)O)c12,3.86,"2.59 µM [falling, full curve]",–
CCN1CCN(c2nc(Nc3ccccc3)nc(N)c2[N+](=O)[O-])CC1,-12.8,–,"0.0058 µM [falling, full curve, poor fit]"
Cc1ccc(N(CC(=O)NC2CCCC2)C(=O)c2ccc(C)s2)cc1,-5.19,"16.4 µM [falling, single point]",–
COc1ccc(CCN2C(=O)C3C4CC(C5C(C(=O)O)=NOC45)C3C2=O)cc1OC (configuration not stated),-26.1,–,–
C=CCn1c(=O)[nH]c2cc(C(=O)N3CCN(c4cc(C)ccc4C)CC3)ccc2c1=O,–,"6.51 µM [falling, single point]",–
CCCCC(=Nc1ccccc1OC)C1=C(O)CC(c2ccccc2)CC1=O (configuration not stated),–,"1.16 µM [rising, full curve]",–
COc1ccc(Cl)cc1NC(=O)c1cc(-c2ccccc2)on1,6.2,–,"0.206 µM [rising, full curve, poor fit]"
CC(=O)c1cccc(NC(=O)CSc2ncc(C(=O)Nc3ccccc3)c(=O)n2C)c1,–,–,"6.51 µM [falling, single point]"
CC(C)(C)C(=O)Nc1ccc(C(=O)NNC(=O)c2ccccc2)cc1,-13.2,–,–
Cc1cc(C(=O)NNC(=S)Nc2ccccc2)nn1C,-58.6,–,"29.1 µM [falling, single point]"
O=C(OCC(=O)N1CCCC1=O)c1ncc(Cl)c(Cl)c1Cl,77,–,"10.3 µM [rising, partial curve]"
CCCCc1nc(NCCN2CCOCC2)c(C#N)c2c1COC(C)(C)C2,-28.9,"0.00461 µM [falling, full curve, poor fit]",–
O=c1cc(O)nc(SC23CC4CC(CC(C4)C2)C3)[nH]1,-6.12,"8.2 µM [falling, partial curve]",–
CC1CCCC(NCC(=O)Nc2ccc(C(N)=O)cc2)C1C (configuration not stated),66.8,"3.66 µM [rising, full curve]",–
CCOC(=O)c1cc(CC)sc1NC(=O)CN1CCN(C(=O)c2ccco2)CC1,-19.4,"29.1 µM [falling, partial curve, poor fit]",–

# One compound at a time, as listed above. Values in the order: cell number change [%] | AC50 [1] | AC50 [2]
# CC(C)(C)C(=O)Nc1ccc(C(=O)NNC(=O)c2ccccc2)cc1 in the list: -13.2 | – | –
# CCOC(=O)c1cc(CC)sc1NC(=O)CN1CCN(C(=O)c2ccco2)CC1 in the list: -19.4 | 29.1 µM [falling, partial curve, poor fit] | –
